This is a selection; strong and weak results do not stand in their true shares. The data scatter; read single values as rough.
Compound: COC(=O)/C=C/c1ccccc1 [methyl cinnamate]
Experiment: log2 ratio of iodoacetamide-alkyne labeling of the cysteine site, DMSO over compound (competition); higher = stronger covalent engagement of the cysteine by the compound, active = 1 or more
Conditions: 500 µM; treatment time 1 h; system: HEK293T cell lysate
How it was run: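 HEK293T lysate (2 mg/mL) was incubated with electrophile (500 µM) or vehicle for 1 h at ambient temperature and then with iodoacetamide alkyne for 1 h. Labelled proteins were clicked to sCIP-TMT reagents, pooled, digested, enriched on streptavidin and measured by Orbitrap Eclipse LC-MS/MS with FAIMS, with FragPipe quantification. The per-cysteine log2 competition ratio is mean control-channel reporter intensity over mean compound-channel reporter intensity. Across three replicates with duplicate channels, cysteines quantified in only one replicate were excluded.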

Chains of the proteins cited; added tags and fusions are not shown. Lines headed by an entry give the natural chain unless they say otherwise; changes in a name come on top.
UniProt P22234: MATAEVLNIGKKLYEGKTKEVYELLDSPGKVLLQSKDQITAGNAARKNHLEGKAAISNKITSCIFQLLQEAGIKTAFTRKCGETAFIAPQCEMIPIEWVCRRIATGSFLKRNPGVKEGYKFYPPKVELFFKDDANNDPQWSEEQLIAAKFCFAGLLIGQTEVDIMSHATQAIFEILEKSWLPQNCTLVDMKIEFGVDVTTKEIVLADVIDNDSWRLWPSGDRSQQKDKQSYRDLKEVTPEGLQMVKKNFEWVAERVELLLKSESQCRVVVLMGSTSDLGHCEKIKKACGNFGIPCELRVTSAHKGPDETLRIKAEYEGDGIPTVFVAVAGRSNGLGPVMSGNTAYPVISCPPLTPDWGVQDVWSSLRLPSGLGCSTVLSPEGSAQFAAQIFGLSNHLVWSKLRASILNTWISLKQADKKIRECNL
UniProt P27708: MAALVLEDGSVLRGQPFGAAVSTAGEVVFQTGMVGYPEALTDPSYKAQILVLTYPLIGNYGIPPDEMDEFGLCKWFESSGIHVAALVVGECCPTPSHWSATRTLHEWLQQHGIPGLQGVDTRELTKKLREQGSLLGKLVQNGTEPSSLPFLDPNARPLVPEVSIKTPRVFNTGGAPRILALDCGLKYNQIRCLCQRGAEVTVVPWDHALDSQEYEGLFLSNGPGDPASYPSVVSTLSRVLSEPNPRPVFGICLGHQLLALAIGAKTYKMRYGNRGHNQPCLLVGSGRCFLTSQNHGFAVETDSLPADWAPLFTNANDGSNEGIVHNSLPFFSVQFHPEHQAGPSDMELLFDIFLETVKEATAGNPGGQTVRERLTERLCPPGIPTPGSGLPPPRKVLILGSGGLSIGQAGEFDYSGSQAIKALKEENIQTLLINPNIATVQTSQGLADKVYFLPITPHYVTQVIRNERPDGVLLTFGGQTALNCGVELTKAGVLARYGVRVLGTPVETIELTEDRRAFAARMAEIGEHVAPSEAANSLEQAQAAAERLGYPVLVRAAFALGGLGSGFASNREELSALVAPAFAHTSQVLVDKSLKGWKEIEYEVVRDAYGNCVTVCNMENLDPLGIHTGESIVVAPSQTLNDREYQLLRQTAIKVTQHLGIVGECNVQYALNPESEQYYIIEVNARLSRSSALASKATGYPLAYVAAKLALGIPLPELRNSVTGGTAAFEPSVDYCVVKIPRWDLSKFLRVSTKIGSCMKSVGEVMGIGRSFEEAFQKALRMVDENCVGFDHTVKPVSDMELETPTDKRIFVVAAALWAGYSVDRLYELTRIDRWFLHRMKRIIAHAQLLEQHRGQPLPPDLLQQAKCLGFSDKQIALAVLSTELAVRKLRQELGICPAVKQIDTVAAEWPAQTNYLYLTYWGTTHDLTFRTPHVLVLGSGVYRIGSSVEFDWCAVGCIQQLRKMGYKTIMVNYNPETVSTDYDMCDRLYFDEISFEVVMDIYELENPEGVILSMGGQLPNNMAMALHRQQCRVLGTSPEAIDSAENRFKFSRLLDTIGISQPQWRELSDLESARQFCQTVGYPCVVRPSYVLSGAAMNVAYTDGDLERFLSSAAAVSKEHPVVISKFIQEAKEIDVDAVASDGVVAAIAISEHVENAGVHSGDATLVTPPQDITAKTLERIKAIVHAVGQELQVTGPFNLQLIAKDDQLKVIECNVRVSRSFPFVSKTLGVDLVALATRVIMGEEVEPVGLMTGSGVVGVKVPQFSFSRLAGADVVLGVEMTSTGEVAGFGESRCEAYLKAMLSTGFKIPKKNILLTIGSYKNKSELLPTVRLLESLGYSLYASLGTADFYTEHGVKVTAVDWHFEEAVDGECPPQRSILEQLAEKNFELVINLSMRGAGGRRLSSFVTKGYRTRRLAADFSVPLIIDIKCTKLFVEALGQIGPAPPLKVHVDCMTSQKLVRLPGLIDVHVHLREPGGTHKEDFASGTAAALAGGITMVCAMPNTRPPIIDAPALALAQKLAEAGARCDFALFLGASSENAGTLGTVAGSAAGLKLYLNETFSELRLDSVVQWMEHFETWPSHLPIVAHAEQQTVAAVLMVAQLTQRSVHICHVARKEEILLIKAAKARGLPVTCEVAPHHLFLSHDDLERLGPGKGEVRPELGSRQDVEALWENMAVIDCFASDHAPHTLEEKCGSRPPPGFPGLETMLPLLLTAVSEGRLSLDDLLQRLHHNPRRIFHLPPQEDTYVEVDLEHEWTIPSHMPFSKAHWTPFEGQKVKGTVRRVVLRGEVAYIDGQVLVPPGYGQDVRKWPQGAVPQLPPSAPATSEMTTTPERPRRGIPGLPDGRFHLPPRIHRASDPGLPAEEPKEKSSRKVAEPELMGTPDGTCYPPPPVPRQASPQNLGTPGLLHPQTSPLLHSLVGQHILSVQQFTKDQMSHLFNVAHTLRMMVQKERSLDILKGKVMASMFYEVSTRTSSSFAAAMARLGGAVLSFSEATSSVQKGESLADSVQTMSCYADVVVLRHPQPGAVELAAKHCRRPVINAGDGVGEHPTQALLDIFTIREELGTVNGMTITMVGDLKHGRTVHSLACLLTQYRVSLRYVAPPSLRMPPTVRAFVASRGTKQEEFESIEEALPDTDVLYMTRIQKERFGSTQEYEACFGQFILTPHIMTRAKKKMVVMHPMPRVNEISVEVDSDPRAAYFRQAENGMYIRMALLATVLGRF
UniProt P26640: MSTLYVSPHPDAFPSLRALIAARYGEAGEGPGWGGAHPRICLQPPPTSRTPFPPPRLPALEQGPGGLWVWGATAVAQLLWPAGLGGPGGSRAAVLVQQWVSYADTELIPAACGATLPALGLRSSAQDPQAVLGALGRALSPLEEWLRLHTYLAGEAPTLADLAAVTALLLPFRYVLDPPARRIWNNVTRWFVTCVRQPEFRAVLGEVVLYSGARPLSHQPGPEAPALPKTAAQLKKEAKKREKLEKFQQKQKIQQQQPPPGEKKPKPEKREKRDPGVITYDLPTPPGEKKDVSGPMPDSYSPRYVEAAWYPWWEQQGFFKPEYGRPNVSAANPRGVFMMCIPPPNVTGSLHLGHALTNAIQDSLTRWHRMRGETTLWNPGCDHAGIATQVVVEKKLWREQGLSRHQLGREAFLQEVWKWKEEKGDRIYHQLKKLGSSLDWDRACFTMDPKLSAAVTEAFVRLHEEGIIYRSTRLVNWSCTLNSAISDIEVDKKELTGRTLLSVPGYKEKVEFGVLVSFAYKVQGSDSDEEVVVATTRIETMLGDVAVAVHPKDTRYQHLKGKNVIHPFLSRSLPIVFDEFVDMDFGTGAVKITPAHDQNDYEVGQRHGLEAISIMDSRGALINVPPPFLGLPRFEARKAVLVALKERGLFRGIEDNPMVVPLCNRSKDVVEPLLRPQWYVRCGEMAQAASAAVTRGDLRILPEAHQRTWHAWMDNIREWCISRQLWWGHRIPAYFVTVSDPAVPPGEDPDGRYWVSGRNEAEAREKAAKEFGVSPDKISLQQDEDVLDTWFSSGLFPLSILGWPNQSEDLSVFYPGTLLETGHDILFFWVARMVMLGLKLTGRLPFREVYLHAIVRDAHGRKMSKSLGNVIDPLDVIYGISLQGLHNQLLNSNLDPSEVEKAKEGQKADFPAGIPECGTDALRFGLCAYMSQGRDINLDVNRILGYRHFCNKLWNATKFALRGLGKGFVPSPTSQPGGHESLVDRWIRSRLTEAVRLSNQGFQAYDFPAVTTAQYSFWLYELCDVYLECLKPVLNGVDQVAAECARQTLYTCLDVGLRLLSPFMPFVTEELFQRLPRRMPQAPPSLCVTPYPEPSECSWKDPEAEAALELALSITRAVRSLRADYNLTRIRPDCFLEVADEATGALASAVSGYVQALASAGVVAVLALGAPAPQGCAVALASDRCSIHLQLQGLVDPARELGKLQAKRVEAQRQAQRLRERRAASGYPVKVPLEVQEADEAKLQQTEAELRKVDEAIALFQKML
UniProt P29401: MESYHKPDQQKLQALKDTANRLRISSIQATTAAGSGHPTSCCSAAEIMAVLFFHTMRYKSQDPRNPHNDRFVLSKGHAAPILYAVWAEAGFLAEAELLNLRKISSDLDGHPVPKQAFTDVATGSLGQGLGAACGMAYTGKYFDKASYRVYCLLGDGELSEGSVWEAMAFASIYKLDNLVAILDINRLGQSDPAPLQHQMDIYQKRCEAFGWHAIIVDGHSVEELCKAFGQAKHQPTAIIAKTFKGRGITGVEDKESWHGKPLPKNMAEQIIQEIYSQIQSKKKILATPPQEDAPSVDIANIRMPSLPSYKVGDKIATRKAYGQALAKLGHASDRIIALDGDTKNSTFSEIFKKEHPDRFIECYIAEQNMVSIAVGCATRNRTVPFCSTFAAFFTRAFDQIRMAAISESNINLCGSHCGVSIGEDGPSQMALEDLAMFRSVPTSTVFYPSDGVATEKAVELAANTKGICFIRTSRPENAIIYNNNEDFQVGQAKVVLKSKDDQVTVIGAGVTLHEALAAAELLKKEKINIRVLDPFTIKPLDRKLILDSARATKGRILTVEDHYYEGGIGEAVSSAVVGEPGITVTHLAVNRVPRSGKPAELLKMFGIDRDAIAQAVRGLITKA
UniProt P27824: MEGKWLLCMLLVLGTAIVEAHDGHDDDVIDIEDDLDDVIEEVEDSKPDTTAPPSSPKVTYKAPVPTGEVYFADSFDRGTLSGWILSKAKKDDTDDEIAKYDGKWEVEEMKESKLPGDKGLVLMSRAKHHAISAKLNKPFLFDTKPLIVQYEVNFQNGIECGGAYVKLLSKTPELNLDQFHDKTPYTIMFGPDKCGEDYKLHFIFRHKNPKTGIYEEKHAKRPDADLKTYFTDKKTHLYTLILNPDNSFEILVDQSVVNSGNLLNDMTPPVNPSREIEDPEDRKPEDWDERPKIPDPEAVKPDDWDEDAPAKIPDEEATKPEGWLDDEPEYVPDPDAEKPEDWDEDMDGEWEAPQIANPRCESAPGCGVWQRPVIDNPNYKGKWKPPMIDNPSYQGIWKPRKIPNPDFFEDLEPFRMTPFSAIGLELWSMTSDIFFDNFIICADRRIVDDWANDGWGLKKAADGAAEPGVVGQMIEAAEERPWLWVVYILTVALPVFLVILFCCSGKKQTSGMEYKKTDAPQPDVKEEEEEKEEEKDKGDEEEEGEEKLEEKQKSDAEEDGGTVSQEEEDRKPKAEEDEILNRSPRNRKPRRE
UniProt P26368, whole entry, looked up: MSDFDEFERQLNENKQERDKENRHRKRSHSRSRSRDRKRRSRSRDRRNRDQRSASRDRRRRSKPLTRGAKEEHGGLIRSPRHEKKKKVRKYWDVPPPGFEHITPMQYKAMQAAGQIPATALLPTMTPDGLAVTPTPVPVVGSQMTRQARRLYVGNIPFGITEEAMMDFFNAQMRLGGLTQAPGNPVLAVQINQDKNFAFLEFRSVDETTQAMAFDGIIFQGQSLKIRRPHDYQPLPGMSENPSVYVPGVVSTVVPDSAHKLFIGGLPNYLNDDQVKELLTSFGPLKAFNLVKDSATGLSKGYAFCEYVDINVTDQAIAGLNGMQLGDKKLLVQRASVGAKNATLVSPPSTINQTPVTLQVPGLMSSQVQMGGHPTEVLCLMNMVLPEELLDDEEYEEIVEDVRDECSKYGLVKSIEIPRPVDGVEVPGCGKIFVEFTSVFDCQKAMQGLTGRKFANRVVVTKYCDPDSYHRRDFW
UniProt P29590: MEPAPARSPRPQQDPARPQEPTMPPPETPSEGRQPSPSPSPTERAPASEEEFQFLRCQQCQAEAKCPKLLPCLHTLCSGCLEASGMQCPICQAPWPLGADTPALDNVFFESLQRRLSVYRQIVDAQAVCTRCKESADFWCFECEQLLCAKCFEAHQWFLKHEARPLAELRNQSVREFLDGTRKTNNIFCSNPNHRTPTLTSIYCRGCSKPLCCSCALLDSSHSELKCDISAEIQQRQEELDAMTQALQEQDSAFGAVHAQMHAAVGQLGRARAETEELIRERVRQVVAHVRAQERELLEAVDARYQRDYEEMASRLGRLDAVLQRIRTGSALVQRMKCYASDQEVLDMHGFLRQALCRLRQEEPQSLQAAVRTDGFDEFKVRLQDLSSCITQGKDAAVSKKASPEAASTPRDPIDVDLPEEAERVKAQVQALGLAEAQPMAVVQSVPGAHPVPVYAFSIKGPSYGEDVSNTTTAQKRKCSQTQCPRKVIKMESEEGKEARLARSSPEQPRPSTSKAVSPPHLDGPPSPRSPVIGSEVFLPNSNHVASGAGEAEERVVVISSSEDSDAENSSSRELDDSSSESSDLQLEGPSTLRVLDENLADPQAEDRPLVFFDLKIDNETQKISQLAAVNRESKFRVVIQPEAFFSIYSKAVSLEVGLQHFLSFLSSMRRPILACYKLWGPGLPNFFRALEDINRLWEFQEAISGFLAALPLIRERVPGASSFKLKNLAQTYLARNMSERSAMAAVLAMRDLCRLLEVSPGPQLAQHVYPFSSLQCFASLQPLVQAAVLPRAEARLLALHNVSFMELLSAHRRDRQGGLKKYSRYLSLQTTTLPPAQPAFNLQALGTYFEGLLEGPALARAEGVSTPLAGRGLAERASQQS

log2 ratio of iodoacetamide-alkyne labeling, inactive:
PLCG1 C247 (UniProt P19174) 0.0679
PAICS C288 (UniProt P22234) 0.0462
RPL17 C15 (UniProt P18621) 0.161
APEX1 C99 (UniProt P27695) -0.039
TPP2 C150 (UniProt P29144) 0.325
PFKL C630 (UniProt P17858) 0.141
APEX1 C310 (UniProt P27695) -0.163
DDX5 C89 (UniProt P17844) -0.21
PSMA1 C148 (UniProt P25786) 0.0475
CAD C183 (UniProt P27708) 0.299
FLNA C2543 (UniProt P21333) 0.35
VARS C41 (UniProt P26640) 0.195
CAST C241 (UniProt P20810) 0.274
TKT C41 (UniProt P29401) -0.171
UniProt P21127_C440 0.205
RPL12 C17 (UniProt P30050) 0.167
CAD C1889 (UniProt P27708) 0.166
FLNA C1018 (UniProt P21333) 0.255
RPL10 C195 (UniProt P27635) 0.384
TUBG1 C316 (UniProt P23258) -0.0762
CANX C160 (UniProt P27824) 0.237
CHM C564 (UniProt P24386) -0.092
U2AF2 C464 (UniProt P26368) -0.00562
FDXR C353 (UniProt P22570) 0.24
NF1 C383 (UniProt P21359) 0.398
POLD1 C713 (UniProt P28340) -0.00198
PFKL C170 (UniProt P17858) -0.00554
MCC C714 (UniProt P23508) 0.306
SDHB C68 (UniProt P21912) 0.243
DNMT1 C751 (UniProt P26358) -0.314
SON C2380 (UniProt P18583) 0.0647
PML C338 (UniProt P29590) 0.362
TKT C42 (UniProt P29401) -0.141
TKT C386 (UniProt P29401) -0.162
GART C41 (UniProt P22102) 0.145
FBL C268 (UniProt P22087) 0.163
UniProt P25398_C130 0.355

For reference, part of the list above.
log2 ratio of iodoacetamide-alkyne labeling, inactive:
TKT C386 (UniProt P29401) -0.162
GART C41 (UniProt P22102) 0.145
FBL C268 (UniProt P22087) 0.163
